The source of these data is PMC8855833.

Sequences of proteins named here, by UniProt entry; tags and fusion partners are left off.
UniProt P33534: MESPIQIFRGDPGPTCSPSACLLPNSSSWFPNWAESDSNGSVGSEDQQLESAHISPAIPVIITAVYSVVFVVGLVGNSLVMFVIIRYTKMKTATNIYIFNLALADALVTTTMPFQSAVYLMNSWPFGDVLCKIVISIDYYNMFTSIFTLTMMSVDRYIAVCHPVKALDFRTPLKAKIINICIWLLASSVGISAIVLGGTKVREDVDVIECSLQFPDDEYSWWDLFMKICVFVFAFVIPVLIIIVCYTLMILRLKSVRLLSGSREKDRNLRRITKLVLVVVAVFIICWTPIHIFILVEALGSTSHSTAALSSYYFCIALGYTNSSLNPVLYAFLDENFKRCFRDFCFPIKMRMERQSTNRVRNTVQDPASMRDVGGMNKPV

These are yes or no findings as the source states them, for the method shown. Binding seen in cells or lysates may run through a third protein. Some results given as binding are weak or reduced against the parent protein; the word gives no strength.

Experiment [1] deals with κ-opioid receptor (mouse (endogenous in DRG)) (UniProt P33534). The experiment is described as follows: co-IP; mouse DRG lysate (300 mM NaCl, 50 mM Tris-HCl, 1% Triton X-100, 10% glycerol); protein G sepharose with mouse anti-KOR-1 antibody, normal mouse IgG as negative control, 4°C overnight; blotted with anti-AC3.
For experiment [2] the target is unchanged. The experiment is described as follows: proximity ligation; Duolink In Situ Red kit on DRG sections or isolated DRG neurons fixed with 4% PFA; rabbit anti-AC3 and mouse anti-KOR-1 antibodies at 4°C overnight; endogenous proteins.

B1: type III adenylyl cyclase (enzyme, UniProt Q8VHH7 1-1145)
chain: MPRNQGFSDPEYSAEYSAEYSVSLPSDPDRGVGRTHEISVRNSGSCLCLPRFMRLTFVPESLENLYQTYFKRQRHETLLVLVVFAALFDCYVVVMCAVVFSSDKLAPLMVAGFGLVLDIILFVLCKKGLLPDRVSRKVVPYLLWLLISAQIFSYLGLNFSRAHAASDTVGWQAFFVFSFFITLPLSLSPIVIISVVSCVVHTLVLGVTVAQQQQDELEGMQLLREILANVFLYLCAIIVGIMSYYMADRKHRKAFLEARQSLEVKMNLEEQSQQQENLMLSILPKHVADEMLKDMKKDESQKDQQQFNTMYMYRHENVSILFADIVGFTQLSSACSAQELVKLLNELFARFDKLAAKYHQLRIKILGDCYYCICGLPDYREDHAVCSILMGLAMVEAISYVREKTKTGVDMRVGVHTGTVLGGVLGQKRWQYDVWSTDVTVANKMEAGGIPGRVHISQSTMDCLKGEFDVEPGDGGSRCDYLDEKGIETYLIIASKPEVKKTAQNGLNGSAVPNGAPASSKPSSPALIETKEPNGSAHASGSTSEEAEEQEAQADNPSFPNPRRRLRLQDLADRVVDASEDEHELNQLLNEALLERESAQVVKKRNTFLLTMRFMDPEMETRYSVEKEKQSGAAFSCSCVVLFCTAMVEILIDPWLMTNYVTFVVGEVLLLILTICSMAAIFPRSFPKKLVAFSSWIDRTRWARNTWAMLAIFILVMANVVDMLSCLQYYMGPYNMTAGMELDGGCMENPKYYNYVAVLSLIATIMLVQVSHMVKLTLMLLVTGAVTALNLYAWCPVFDEYDHKRFQEKDSPMVALEKMQVLATPGLNGTDSRLPLVPSKYSMTVMMFVMMLSFYYFSRHVEKLARTLFLWKIEVHDQKERVYEMRRWNEALVTNMLPEHVARHFLGSKKRDEELYSQSYDEIGVMFASLPNFADFYTEESINNGGIECLRFLNEIISDFDSLLDNPKFRVITKIKTIGSTYMAASGVTPDVNTNGFTSSSKEEKSDKERWQHLADLADFALAMKDTLTNINNQSFNNFMLRIGMNKGGVLAGVIGARKPHYDIWGNTVNVASRMESTGVMGNIQVVEETQVILREYGFRFVRRGPIFVKGKGELLTFFLKGRDRPAAFPNGSSVTLPHQVVDNP
As for B1, the binding entry in experiment [1] and in experiment [2] was “binds” in each case.
